Earlier results in US20210069213A1, “COMPOSITION AND METHOD OF TREATMENT FOR DRY A.M.D. (AGE RELATED MACULAR DEGENERATION)” (EYE CO PTY LTD, priority 2018, published 2021).
At least one structure is not confirmed: it was looked up by name or label, or the drawing left a doubt.

How the values were obtained:
glucocorticoid receptor = target: T1, glucocorticoid receptor (Homo sapiens, UniProt P04150); conditions: Table 1; hydrocortisone (cortisol) = 1; cited from earlier work
T1 sequence (P04150 1-777): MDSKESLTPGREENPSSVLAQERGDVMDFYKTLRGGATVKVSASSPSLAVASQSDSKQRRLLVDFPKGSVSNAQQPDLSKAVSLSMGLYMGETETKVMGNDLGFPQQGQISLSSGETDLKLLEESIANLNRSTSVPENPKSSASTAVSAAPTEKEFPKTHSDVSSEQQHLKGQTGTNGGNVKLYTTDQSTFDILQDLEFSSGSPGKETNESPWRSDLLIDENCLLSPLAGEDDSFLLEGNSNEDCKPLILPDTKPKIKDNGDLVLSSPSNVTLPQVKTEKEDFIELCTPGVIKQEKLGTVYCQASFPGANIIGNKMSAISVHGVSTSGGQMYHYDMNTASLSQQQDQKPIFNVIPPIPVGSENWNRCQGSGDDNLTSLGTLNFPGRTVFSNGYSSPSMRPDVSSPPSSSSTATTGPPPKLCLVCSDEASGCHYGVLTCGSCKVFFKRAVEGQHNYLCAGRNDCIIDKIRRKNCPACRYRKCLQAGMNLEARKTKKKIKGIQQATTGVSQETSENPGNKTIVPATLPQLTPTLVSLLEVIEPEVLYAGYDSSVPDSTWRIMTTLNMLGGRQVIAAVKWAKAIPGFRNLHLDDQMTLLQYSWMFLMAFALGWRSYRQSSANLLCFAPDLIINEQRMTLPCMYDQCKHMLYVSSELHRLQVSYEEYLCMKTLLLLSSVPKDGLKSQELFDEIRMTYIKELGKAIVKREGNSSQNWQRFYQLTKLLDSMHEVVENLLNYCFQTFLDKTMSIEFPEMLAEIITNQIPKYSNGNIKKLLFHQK

[1] = target: T2, mineralocorticoid receptor (Homo sapiens, UniProt P08235); conditions: Table 1; hydrocortisone (cortisol) = 1; cited from earlier work
T2 sequence (P08235 1-984): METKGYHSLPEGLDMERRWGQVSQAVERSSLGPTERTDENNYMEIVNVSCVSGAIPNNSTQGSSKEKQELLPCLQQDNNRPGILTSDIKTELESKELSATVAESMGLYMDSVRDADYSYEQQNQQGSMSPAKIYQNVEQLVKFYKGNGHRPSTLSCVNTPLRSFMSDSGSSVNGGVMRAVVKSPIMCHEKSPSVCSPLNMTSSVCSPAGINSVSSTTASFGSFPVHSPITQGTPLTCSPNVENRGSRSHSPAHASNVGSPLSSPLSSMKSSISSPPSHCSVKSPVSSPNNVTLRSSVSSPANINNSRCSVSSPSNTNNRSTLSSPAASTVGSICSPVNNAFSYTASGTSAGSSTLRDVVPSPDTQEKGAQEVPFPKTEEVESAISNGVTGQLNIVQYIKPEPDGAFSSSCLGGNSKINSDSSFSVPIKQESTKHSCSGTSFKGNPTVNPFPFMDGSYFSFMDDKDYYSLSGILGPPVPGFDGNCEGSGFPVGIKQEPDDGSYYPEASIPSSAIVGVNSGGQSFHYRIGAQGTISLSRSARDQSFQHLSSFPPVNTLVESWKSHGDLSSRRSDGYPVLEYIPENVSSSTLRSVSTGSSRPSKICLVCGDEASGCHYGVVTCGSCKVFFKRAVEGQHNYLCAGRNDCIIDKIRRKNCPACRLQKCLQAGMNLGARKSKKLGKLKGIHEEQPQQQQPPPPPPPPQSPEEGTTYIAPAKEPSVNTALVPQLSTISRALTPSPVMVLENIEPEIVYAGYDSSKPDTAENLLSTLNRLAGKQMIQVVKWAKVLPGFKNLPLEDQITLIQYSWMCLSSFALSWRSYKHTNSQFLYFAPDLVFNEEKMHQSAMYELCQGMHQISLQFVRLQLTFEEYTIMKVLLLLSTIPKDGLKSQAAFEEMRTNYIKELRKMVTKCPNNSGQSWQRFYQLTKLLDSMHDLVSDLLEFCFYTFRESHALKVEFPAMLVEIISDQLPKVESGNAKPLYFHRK

For C[C@H]1C[C@@H]2[C@H]([C@@H](O)C[C@@]3(C)[C@H]2CC[C@]3(O)C(=O)CO)[C@@]2(C)C=CC(=O)C=C12 [Methylprednisolone], the GR potency (glucocorticoid receptor) is given as 5-7.5 and the MR potency [1] is given as 0.5.
